# Library screen at single concentrations

The values are deposited in ChEMBL (CHEMBL3988442, “University of Dundee, Small-Polar-MMV Screening Library” (2021)).

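Phenotypic screen: M. tuberculosis growth, cholesterol and DPPC medium, 4 days; the read-out is not stated. Compounds at 500 µM. Higher reads as more growth inhibition (inferred: compounds with an IC50 in retests scored well above the rest). Size under these conditions: about 18,000 compounds, about 900 of them at 50% or above in at least one test.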

The filed quantity is “Percent Effect” (%). The record does not define 0% and 100%; most values in the screen are far below 50% and negative numbers occur (in some assays of this library far below -100). Compounds were drawn at random from those tested, without regard to their results.

{"smiles": "CNS(=O)(=O)CC1CCCN1C(=O)c1sccc1C", "stereo": "configuration not stated", "effect": 5.648}
{"smiles": "Cn1ccc(NC(=O)CN2CC[C@](C)(O)C(C)(C)C2)n1", "effect": -11.57}
{"smiles": "Cc1nnc(CN2CCCC(C(=O)NCC3CC3)C2)o1", "stereo": "configuration not stated", "effect": -6.789}
{"smiles": "CCCS(=O)(=O)N1C[C@@H](CN(C)C)[C@@H](CO)C1", "effect": -4.315}
{"smiles": "Cc1ccc(NC(=O)N2CCCC(N)C2)c(F)c1", "stereo": "configuration not stated", "effect": 5.881}
{"smiles": "CC1c2ccsc2CCN1CCC(=O)NC(N)=O", "stereo": "configuration not stated", "effect": 109.2}
{"smiles": "CC(C)CCNC(=O)CCC(=O)NCCCOC(C)C", "effect": 1.567}
{"smiles": "Cc1nsc(C(=O)NCCCn2cccn2)n1", "effect": 26.17}
{"smiles": "FCC1CNCCCO1", "stereo": "configuration not stated", "effect": 3.356}
{"smiles": "CN1CCN(CC2CCNCC2)CC1", "effect": -18.96}
{"smiles": "CC(=O)Nc1cc(S(=O)(=O)NCCN(C)C)ccc1C", "effect": 10.93}
{"smiles": "Cc1cc(NC(=O)N2CCS(=O)(=O)CC2)c(Cl)cc1F", "effect": 7.674}
{"smiles": "O=C(COCC(=O)N1CCCCC1)Nc1ccccc1", "effect": -4.998}
{"smiles": "CCOC(=O)N1CCCC(C(=O)N2CC[C@@H](OC)C2)C1", "stereo": "some centres not stated", "effect": -1.096}
{"smiles": "COCCN1CCCN(C(=O)C(C)C)CC1", "effect": 3.912}
{"smiles": "CCOC(=O)Cn1cnc2sc(C(N)=O)c(C)c2c1=O", "effect": -1.917}
{"smiles": "Cc1ccc(F)cc1S(=O)(=O)N1CCN[C@H](C)C1", "effect": 4.85}
{"smiles": "CCn1nc(C)cc1C(=O)Nc1ccnc(N(C)C)n1", "effect": 58.68}
{"smiles": "N#Cc1cccc(CCNC(=O)NCCO)c1", "effect": 2.638}
{"smiles": "CCCS(=O)(=O)NC1CCN(c2ccncc2Cl)CC1", "effect": 34.67}
{"smiles": "CSCc1noc(CN(C)Cc2cc(C)on2)n1", "effect": 9.317}
{"smiles": "NC1CCN(CC(F)F)CC1", "effect": -20.4}
{"smiles": "NC(=O)CC(N)C1CCOCC1", "stereo": "configuration not stated", "effect": 3.717}
{"smiles": "Nc1nnc(CS(=O)(=O)Cc2ccccc2)s1", "effect": -3.663}
{"smiles": "Cc1cccnc1N1CCNCC1", "effect": 4.347}
{"smiles": "Cc1cc(C(=O)NCC2(O)CCCNC2)cc(=O)[nH]1", "stereo": "configuration not stated", "effect": -2.358}
{"smiles": "COc1cc(C(C)=O)ccc1OC(C)C(=O)NC(C)C", "stereo": "configuration not stated", "effect": -11.61}
{"smiles": "COC(=O)N1CCC(NC(=O)CCc2ccsc2)C1", "stereo": "configuration not stated", "effect": 41.68}
{"smiles": "Cc1cccc(C(=O)NCCCNS(C)(=O)=O)c1O", "effect": 17.64}
{"smiles": "O=C(C1COCCO1)N1CCc2ccc(Br)cc21", "stereo": "configuration not stated", "effect": -19.89}

Some entries from above, unchanged:

{"smiles": "Cc1nnc(CN2CCCC(C(=O)NCC3CC3)C2)o1", "stereo": "configuration not stated", "effect": -6.789}
{"smiles": "CCCS(=O)(=O)N1C[C@@H](CN(C)C)[C@@H](CO)C1", "effect": -4.315}
{"smiles": "N#Cc1cccc(CCNC(=O)NCCO)c1", "effect": 2.638}
{"smiles": "NC(=O)CC(N)C1CCOCC1", "stereo": "configuration not stated", "effect": 3.717}